No constants are given. Whether binding was seen depends on the method and setting. Binding seen in cells or lysates may run through a third protein. These calls come from enrichment with a bait or labelling near it, and not all partners need be listed.

The chains behind the UniProt entries cited, without tags or fusion partners.
UniProt Q14694: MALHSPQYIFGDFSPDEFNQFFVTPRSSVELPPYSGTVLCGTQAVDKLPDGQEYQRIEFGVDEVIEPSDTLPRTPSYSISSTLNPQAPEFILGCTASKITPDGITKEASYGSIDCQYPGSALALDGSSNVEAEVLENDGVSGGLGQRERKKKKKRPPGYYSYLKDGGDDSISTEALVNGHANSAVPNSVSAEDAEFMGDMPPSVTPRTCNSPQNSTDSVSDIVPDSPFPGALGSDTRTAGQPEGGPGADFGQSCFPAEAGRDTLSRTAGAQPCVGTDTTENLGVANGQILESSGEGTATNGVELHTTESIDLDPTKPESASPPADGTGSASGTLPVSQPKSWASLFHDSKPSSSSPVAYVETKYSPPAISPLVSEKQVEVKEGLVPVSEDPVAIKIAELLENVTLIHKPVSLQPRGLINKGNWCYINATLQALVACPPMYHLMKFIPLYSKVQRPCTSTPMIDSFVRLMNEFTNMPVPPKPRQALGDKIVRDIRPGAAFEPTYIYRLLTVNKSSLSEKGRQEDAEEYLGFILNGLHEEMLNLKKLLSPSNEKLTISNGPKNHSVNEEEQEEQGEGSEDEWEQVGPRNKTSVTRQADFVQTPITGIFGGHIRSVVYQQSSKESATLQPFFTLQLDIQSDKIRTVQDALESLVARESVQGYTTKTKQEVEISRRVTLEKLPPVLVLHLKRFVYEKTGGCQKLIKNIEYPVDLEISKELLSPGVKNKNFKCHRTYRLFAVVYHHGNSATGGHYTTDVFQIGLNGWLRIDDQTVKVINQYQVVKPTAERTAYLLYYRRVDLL
UniProt P53350: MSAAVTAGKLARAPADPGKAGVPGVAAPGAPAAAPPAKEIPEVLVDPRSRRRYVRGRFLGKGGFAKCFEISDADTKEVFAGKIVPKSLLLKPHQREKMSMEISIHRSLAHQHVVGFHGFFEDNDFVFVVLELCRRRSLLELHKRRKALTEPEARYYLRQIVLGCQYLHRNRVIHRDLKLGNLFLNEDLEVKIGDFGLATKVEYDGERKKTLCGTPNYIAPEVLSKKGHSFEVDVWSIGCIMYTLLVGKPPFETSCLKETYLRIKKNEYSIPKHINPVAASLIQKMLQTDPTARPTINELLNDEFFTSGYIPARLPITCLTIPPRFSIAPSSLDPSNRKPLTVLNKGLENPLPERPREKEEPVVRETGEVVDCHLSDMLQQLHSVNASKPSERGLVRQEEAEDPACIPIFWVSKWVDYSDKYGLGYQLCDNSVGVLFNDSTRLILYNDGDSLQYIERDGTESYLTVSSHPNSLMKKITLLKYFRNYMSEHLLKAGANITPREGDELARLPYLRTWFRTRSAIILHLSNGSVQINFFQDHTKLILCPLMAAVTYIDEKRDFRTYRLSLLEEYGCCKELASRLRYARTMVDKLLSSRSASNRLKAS

The target of the test is Ubiquitin-specific peptidase 10 (USP10), endogenous (human (endogenous in PANC-1 and MIAPaCa-2)) (UniProt Q14694). As to the kind of experiment: affinity purification with mass spectrometry; endogenous USP10 purified by IP from PANC-1 and MIAPaCa-2 cells; shotgun mass spectrometry of the proteins found with it.

In the case of “PLK1, endogenous (from UniProt P53350 1-603) (enzyme)”, the binding entry is given as “binds”.

Values taken from article PMC12167373.
